Drawing on publication PMC12068301, this text covers binding for seven molecules.

Sequences of proteins named here, by UniProt entry; tags and fusion partners are left off.
UniProt Q6A4J8: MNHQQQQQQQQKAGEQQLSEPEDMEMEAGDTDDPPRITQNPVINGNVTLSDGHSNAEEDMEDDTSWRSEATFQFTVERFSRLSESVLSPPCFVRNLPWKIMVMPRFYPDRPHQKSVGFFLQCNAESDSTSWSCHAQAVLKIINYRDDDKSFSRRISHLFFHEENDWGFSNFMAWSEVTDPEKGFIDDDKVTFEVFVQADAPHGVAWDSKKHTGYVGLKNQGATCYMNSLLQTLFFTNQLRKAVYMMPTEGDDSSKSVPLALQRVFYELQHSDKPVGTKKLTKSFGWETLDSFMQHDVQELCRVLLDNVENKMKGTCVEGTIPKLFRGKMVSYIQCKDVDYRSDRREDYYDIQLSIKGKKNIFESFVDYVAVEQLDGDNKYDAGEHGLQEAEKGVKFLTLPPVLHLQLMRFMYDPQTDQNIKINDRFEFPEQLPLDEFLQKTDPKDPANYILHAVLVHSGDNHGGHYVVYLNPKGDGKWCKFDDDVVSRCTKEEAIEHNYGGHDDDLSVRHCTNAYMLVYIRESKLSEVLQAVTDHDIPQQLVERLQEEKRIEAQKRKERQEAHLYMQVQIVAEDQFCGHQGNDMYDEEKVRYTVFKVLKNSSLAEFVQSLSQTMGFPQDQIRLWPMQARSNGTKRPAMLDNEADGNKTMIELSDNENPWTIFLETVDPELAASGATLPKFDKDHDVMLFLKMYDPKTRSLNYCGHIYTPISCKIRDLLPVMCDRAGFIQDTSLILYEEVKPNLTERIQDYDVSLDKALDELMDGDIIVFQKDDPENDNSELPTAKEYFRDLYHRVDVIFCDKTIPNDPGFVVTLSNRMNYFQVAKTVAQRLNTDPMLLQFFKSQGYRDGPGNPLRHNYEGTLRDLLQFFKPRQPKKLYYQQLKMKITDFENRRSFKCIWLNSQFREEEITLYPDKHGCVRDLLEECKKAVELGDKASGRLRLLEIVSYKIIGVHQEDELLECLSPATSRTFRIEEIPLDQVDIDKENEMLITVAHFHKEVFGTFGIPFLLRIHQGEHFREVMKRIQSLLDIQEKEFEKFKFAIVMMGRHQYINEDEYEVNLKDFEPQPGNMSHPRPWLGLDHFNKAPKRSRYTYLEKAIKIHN
UniProt P31266: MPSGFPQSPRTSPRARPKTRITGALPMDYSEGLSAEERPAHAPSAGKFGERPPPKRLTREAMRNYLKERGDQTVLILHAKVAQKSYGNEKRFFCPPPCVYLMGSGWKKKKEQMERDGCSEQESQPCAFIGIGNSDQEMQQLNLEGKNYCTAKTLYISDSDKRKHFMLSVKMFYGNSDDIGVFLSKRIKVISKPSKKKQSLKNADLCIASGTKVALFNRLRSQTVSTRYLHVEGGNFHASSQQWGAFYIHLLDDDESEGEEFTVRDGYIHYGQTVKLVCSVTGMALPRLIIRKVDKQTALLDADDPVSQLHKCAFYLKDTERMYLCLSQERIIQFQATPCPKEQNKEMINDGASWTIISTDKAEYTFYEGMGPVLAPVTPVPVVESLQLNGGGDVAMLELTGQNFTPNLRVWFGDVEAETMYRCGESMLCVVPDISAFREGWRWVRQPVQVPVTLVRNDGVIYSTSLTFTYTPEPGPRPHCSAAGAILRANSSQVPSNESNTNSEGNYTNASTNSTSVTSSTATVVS
UniProt P61961: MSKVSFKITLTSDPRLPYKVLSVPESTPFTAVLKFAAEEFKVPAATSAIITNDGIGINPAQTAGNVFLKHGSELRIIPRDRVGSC

These are yes or no findings as the source states them, for the method shown. In cells and extracts the contact can be indirect. Some entries that bind do so weakly or less than the wild type. For some of these results: Sequences can lack the tags named with a protein.

Assay [1] has as its target USP7 (mouse (endogenous in primary CD3+ T cells)) (UniProt Q6A4J8). The assay can be described thus: co-IP; endogenous proteins; CD3+ T cell lysate with anti-IgG control or anti-USP7, -RBPJ, -UFL1, -UFM1 or -UFSP2 antibody 1 h at 4°C, Protein A/G magnetic beads 2 h at 4°C; 5% lysate as input; immunoblot. For orientation: In western blotting, separated proteins are transferred to a membrane and probed.

The target of assay [2] is Myc-labeled USP7 (WT) (UniProt Q6A4J8). The assay can be described thus: co-IP; CD3+ T cells co-transfected with tagged WT or domain-deficient mutants (Myc-USP7 with His-RBPJ, Flag-UFL1, GFP-UFM1 or Flag-UFSP2); immunoprecipitation and immunoblot.
Assay [3] deals with USP7 (mouse (endogenous in primary CD3+ T cells)) (UniProt Q6A4J8). The assay can be described thus: co-IP; endogenous proteins; CD3+ T cell lysate with anti-IgG control or anti-USP7, -RBPJ, -UFL1, -UFM1 or -UFSP2 antibody 1 h at 4°C, Protein A/G magnetic beads 2 h at 4°C; 5% lysate as input; immunoblot. This is another data set of the same source.
Assay [4] has the same target. The assay can be described thus: co-IP; binding of USP7 and UFL1 in Cd36-KO CD3+ T cells.
The target is the same in assay [5]. The assay can be described thus: co-IP; binding of USP7 and UFL1 in CD3+ T cells treated with Dorsomophine (10 μM), A-769662 (3 μM) or with Cd36-OE.
Assay [6] shares this target. The assay can be described thus: condition: only in CD3+ T cells with 3Q of CD36 (three N-glycosylation sites mutated); co-IP; binding of USP7 and UFL1 in CD3+ T cells with CD36 mutated at three N-glycosylation sites (3Q).

Consider RBPJ (from UniProt P31266 1-526), for which the binding entry in assay [1] is “binds”.
Consider “GFP-labeled UFM1 (WT) (from UniProt P61961 1-85)”, for which the binding result in assay [2] was “binds”.
Take “His-labeled RBPJ (WT) (from UniProt P31266 1-526)”: the binding result in assay [2] was “binds”.

B1: Flag-labeled UFSP2 (WT) (enzyme, UniProt Q99K23 1-461)
chain: MDILFRIRGGFDLAFQLAPPKEMFIKNALRQVLSDLTTKLSSDALVLRVCNSSVYLWPNSDANTGELTDSSACKNVVRFIQFDQEEDTKRKFIKKKDKKLTDTQQIVNIDLMLEISTPLGAVTPILERENEEHHYINMSLPIDAVVSVAPEESWGKVRKLLVDAILRQLVDVEKCILRYMKGTSIVVPEPLHFQLPGKKNLVTVLYPSGIPDDQLQAYRKELHDLFNLPHDRPYFKRINAYHFPDELYKDGYIRNPHTYLSPPNIEGSMICVVQGTYAYHHYMQDRIDDNGWGCAYRSLQTICSWFRHQGYTERSIPTHREIQQALVDAGDKPATFVGSRQWIGSIEVQMVLNQLIGVTSKILFVNQGSEMASQGRELANHFQNVGTPVMVGGGVLAHTILGVAWNETTGQIKFLILDPHYTGAEDLQVMLEKGWCGWKSPDFWNKDAYYNLCLPQRPNAL
On to B1, for which the binding entry in assay [2] is “binds”.

B2: UFSP2 (enzyme, UniProt Q99K23 1-461)
chain: MDILFRIRGGFDLAFQLAPPKEMFIKNALRQVLSDLTTKLSSDALVLRVCNSSVYLWPNSDANTGELTDSSACKNVVRFIQFDQEEDTKRKFIKKKDKKLTDTQQIVNIDLMLEISTPLGAVTPILERENEEHHYINMSLPIDAVVSVAPEESWGKVRKLLVDAILRQLVDVEKCILRYMKGTSIVVPEPLHFQLPGKKNLVTVLYPSGIPDDQLQAYRKELHDLFNLPHDRPYFKRINAYHFPDELYKDGYIRNPHTYLSPPNIEGSMICVVQGTYAYHHYMQDRIDDNGWGCAYRSLQTICSWFRHQGYTERSIPTHREIQQALVDAGDKPATFVGSRQWIGSIEVQMVLNQLIGVTSKILFVNQGSEMASQGRELANHFQNVGTPVMVGGGVLAHTILGVAWNETTGQIKFLILDPHYTGAEDLQVMLEKGWCGWKSPDFWNKDAYYNLCLPQRPNAL
Turning to B2, in assay [3], the binding entry is on record as “binds”.

B3: Flag-labeled UFL1 (WT) (enzyme, UniProt Q8CCJ3 1-793)
chain: MADAWEEIRRLAADFQRAQFAESTQRLSERNCIEIVNKLISQKQLEVVHTLDGKEYITPAQISKEMRDELHVRGGRVNIVDLQQVINVDLTHIESRVSDIIKSEKHVQMVLGQLIDENYLDQLSEEVNDKLQESGQVTVSELCKAYDLPGDFLTQALTQRLGRIINGHLDLDNRGVIFTEAFVARHKARIRGLFSAITRPTPVNSLVSKYGFQEQLLYSVLEDLVSTGRLRGTVVGGRQDKAVFVPDIYSRTQSTWVDSFFRQNGYLEFDALSRLGIPDAVNYIKKRYKNTQLLFLKATCVGQGLVDQVEASVEEAISSGTWVDISPLLPSSLSVEDAAMLLQQVMRPFGKLASAIVFSDTVVVSEKFITDCTGLFSERMHQKAEKEMKNNPVHLITEEDLKQISILESVNTSKKDKKDERRKKATEGSGSVRGGGGGNAREYKIKKTKKKGRKDEDSDDESQSSHGGKKKPDITFMFQDEIEDCLRKHIQDAPEEFISELAEYLIKPLNKMYLEVVRSVFMSSTSASGTGRKRTIKDLQEEVSNLYNNIRLFEKGMKYFADDTQTALTKHLLKTVCTDITNLMFNFLASDFLMAVEEPAAITSDIRKKILSKLTEETKVALTKLHNSLNEKSIEDFLSCLDSATEACDIMVKKGDKKRERQILFQHRQALCEQLKVTEDPALILHLTAVLLFQLSTHSMLHAPGRCVPQIIAFLHSKIPEDQHTLLVKYQGLVVKQLVSQNKKTGQGEDPSSDELDKEQHDVTNATRKELQELSLSIKDLVLKSRKSSVTEE
Take B3: the binding result in assay [2] is “binds”.

B4: UFL1 (enzyme, UniProt Q8CCJ3 1-793)
chain: MADAWEEIRRLAADFQRAQFAESTQRLSERNCIEIVNKLISQKQLEVVHTLDGKEYITPAQISKEMRDELHVRGGRVNIVDLQQVINVDLTHIESRVSDIIKSEKHVQMVLGQLIDENYLDQLSEEVNDKLQESGQVTVSELCKAYDLPGDFLTQALTQRLGRIINGHLDLDNRGVIFTEAFVARHKARIRGLFSAITRPTPVNSLVSKYGFQEQLLYSVLEDLVSTGRLRGTVVGGRQDKAVFVPDIYSRTQSTWVDSFFRQNGYLEFDALSRLGIPDAVNYIKKRYKNTQLLFLKATCVGQGLVDQVEASVEEAISSGTWVDISPLLPSSLSVEDAAMLLQQVMRPFGKLASAIVFSDTVVVSEKFITDCTGLFSERMHQKAEKEMKNNPVHLITEEDLKQISILESVNTSKKDKKDERRKKATEGSGSVRGGGGGNAREYKIKKTKKKGRKDEDSDDESQSSHGGKKKPDITFMFQDEIEDCLRKHIQDAPEEFISELAEYLIKPLNKMYLEVVRSVFMSSTSASGTGRKRTIKDLQEEVSNLYNNIRLFEKGMKYFADDTQTALTKHLLKTVCTDITNLMFNFLASDFLMAVEEPAAITSDIRKKILSKLTEETKVALTKLHNSLNEKSIEDFLSCLDSATEACDIMVKKGDKKRERQILFQHRQALCEQLKVTEDPALILHLTAVLLFQLSTHSMLHAPGRCVPQIIAFLHSKIPEDQHTLLVKYQGLVVKQLVSQNKKTGQGEDPSSDELDKEQHDVTNATRKELQELSLSIKDLVLKSRKSSVTEE
B4: the binding result is “no binding (condition: in Cd36-KO CD3+ T cells)” in assay [4], “binds” in assay [3], “binds” in assay [5] and “no binding” in assay [6].
